# Assay results reported in patent publication US20240002424A1, “HEXOSAMINE COMPOUNDS AND METHODS THEREOF” (National Institute of Immunology, priority 2021, published 2024).
# Some of these results come from one statement about several compounds together.
# Tested on: Jurkat cells
# Assay: NeuAz expression on the cell surface by SPAAC with DBCO-Cy5 and flow cytometry, competition with Ac4ManNAz (1c)
# Type: cell-based, human
# Conditions: 50 μM co-incubated with 1c 50 μM, 48 h
# Procedure: FIG. 5 illustrates competitive processing by compounds of the present invention (ManNAc compounds). ManNAc compounds competitively reduce the expression of N-azidoacetyl-D-neuraminic acid (NeuAz)-carrying sialoglycans through the metabolic processing of Ac4ManNAz. Jurkat (human T-lymphoma) cells were incubated with Ac4ManNAz (Z) (50 μM) alone, co-incubated with GL-2, GL-3, MA-2, or MA-3 (at various concentrations such as 10,
# 25, and 50 μM) for 24 h. Expression of N-azidoacetyl-D-neuraminic acid (NeuAz) on the cell surface sialoglycans was estimated using strain-promoted azide-alkyne cycloaddition (SPAAC) with DBCO-Cy5 and analyzed by flow cytometry. […]
# Jurkat cells (3.0×10^5 cells/mL; 2.5 mL per well in 6-well plates) in complete medium were treated with either vehicle (D) or Compound 1c; Untreated Jurkat cells, without addition of vehicle, were also included as additional controls. […] Prior to the last wash cells were counted and were aliquoted to 1.0×10^6 cells per sample in 1.5 mL microcentrifuge tubes and centrifuged. […] After one hour, the cells were washed using FSB (0.5 mL, 3000×g, 2.0 min, room temperature), resuspended in PBS (250 mL), treated with PI (2.5 mg/mL), and analyzed using BD FACSCanto and FACSDiva Version 6.1.3. […] Two replicate samples were prepared for each conditions and each sample was counted twice. […]
smiles,measurement,value
"CC(=O)OC[C@H]1OC(OC(C)=O)[C@@H](NC(=O)C2CCC2)[C@@H](OC(C)=O)[C@@H]1OC(C)=O (stereo partly drawn) [Compound 1b, (3S,4R,5S,6R)-6-(acetoxymethyl)-3-(cyclobutanecarboxamido)tetrahydro-2H-pyran-2,4,5-triyl triacetate]",reduction of NeuAz expression,35-40%
